The text below walks through data of the supplement of paper PMC6411743.

Amino acid sequences for entries named in this document (tags omitted). A change or cut given only in a name is not applied to a line headed by its entry.
UniProt Q53GQ0: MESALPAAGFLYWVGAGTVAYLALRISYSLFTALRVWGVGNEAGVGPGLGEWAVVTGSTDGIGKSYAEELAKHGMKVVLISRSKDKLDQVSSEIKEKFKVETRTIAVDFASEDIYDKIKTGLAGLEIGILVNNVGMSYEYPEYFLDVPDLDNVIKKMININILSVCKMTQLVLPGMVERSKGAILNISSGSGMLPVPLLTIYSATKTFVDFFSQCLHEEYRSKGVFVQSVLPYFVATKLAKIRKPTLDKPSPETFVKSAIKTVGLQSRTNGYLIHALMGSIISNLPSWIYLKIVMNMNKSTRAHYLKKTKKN
UniProt Q15274: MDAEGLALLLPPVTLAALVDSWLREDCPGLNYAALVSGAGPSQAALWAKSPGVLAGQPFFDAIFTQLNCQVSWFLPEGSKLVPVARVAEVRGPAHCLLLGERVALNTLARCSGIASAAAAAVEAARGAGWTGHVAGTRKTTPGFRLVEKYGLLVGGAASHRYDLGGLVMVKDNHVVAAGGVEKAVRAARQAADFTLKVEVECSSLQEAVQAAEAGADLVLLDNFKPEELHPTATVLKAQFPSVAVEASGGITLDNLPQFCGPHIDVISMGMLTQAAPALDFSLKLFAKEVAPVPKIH
UniProt Q53T59: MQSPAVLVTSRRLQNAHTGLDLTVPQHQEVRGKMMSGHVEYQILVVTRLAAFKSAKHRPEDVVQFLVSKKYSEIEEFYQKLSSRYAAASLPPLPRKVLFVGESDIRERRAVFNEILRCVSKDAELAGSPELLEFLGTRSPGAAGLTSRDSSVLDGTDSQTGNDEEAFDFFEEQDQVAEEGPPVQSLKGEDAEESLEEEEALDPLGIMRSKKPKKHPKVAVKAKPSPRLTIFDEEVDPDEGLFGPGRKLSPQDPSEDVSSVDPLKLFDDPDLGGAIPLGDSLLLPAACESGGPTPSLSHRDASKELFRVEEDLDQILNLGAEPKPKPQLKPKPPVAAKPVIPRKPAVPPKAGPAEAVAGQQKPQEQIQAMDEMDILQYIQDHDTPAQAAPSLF
UniProt Q5MIZ7: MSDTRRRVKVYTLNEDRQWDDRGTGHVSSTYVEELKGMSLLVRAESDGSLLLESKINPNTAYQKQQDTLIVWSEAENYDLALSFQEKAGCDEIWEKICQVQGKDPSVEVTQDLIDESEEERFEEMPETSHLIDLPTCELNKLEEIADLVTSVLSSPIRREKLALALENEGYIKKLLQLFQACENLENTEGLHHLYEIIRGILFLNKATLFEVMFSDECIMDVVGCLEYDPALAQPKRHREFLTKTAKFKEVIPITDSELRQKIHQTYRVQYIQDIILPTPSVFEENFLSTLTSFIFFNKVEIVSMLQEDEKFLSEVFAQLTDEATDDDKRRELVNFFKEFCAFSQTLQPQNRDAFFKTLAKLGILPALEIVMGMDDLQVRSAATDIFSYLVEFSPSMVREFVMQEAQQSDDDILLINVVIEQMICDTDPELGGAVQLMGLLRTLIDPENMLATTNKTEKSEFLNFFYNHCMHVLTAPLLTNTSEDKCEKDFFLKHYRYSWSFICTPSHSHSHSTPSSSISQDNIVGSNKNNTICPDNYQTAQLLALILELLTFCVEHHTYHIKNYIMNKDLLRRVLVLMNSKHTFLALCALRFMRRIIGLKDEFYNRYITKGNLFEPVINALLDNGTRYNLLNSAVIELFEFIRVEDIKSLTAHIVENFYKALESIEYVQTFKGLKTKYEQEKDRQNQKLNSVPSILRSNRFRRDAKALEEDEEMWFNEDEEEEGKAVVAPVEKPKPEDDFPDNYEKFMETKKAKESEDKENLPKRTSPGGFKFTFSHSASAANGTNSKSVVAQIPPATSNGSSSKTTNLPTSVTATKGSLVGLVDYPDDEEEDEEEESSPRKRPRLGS
UniProt Q15058: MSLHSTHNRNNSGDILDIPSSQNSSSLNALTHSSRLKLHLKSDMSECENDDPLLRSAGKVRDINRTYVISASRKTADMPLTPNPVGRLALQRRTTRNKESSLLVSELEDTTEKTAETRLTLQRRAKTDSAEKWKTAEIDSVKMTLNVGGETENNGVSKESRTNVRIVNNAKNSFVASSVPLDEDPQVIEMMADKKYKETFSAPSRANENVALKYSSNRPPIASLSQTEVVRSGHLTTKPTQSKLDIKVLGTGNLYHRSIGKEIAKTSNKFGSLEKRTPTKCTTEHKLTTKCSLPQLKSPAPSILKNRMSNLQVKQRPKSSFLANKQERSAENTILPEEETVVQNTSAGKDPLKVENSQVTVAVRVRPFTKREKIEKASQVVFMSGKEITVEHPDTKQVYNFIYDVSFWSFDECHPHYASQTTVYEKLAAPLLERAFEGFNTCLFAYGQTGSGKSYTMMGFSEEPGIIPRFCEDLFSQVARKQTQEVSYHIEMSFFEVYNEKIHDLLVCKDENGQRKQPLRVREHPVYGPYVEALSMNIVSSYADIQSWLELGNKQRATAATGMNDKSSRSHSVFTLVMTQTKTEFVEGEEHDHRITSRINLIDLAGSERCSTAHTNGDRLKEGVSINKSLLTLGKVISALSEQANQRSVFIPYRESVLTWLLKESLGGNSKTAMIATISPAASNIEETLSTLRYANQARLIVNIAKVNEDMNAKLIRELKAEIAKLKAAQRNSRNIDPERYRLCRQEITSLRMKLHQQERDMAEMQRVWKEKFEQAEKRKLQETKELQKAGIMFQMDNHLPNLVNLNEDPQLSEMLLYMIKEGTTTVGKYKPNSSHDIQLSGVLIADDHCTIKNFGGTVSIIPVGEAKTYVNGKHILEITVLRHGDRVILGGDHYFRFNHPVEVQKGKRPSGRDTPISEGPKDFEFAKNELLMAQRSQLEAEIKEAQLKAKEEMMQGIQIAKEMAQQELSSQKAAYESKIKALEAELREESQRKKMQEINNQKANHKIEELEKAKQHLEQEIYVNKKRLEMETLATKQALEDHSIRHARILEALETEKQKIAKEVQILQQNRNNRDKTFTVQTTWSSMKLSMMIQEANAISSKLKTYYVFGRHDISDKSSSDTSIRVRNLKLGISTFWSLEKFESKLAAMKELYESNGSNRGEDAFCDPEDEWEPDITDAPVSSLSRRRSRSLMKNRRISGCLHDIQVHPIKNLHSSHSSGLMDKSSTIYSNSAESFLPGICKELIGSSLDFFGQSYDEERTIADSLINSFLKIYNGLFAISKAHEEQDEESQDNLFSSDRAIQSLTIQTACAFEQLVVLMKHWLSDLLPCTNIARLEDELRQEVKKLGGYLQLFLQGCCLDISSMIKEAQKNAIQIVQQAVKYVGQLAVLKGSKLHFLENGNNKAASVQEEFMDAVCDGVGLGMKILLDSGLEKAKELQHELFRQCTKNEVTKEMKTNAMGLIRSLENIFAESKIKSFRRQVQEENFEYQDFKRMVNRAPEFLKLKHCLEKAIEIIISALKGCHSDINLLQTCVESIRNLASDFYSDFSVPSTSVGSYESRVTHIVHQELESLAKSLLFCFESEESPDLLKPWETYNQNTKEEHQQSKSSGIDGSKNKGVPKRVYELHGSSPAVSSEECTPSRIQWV
UniProt Q5QJE6: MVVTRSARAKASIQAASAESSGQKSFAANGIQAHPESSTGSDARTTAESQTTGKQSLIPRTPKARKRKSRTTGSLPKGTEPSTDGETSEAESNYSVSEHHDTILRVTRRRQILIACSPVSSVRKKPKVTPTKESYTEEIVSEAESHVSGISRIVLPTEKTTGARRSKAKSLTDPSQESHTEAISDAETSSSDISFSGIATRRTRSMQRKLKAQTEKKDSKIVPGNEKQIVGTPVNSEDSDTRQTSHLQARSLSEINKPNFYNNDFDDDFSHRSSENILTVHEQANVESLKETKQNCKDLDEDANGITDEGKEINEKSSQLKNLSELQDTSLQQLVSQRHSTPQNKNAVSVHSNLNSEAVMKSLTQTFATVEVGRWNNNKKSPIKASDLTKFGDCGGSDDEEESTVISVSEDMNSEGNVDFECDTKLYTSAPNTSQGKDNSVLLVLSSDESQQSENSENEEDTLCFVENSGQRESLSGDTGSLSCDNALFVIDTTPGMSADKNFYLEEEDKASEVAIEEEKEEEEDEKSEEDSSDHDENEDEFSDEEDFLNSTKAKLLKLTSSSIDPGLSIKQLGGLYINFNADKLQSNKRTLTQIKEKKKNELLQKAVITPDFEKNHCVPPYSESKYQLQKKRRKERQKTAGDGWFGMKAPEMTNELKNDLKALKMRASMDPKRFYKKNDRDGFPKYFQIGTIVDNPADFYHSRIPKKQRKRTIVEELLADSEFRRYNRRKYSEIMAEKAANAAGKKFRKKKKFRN
UniProt Q5T3J3: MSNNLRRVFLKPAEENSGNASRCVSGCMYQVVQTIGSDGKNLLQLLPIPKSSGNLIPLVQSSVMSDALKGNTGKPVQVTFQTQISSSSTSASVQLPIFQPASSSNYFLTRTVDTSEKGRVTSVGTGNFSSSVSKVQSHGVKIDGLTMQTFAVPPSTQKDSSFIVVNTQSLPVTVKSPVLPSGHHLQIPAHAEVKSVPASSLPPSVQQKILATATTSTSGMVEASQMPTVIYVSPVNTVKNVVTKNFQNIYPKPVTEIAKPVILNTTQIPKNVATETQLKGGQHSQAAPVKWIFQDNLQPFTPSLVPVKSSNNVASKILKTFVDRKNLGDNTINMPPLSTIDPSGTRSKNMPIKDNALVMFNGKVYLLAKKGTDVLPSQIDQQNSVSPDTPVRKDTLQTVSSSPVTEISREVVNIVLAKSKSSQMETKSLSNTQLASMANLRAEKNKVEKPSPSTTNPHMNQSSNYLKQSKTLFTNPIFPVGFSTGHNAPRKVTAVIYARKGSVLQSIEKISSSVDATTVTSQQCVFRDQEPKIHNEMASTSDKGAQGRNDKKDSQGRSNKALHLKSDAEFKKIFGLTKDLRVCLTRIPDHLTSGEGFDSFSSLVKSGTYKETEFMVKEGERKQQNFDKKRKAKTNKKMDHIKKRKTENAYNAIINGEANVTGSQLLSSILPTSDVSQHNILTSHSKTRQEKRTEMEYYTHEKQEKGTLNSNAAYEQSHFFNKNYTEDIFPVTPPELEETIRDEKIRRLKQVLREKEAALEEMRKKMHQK
UniProt Q5T280: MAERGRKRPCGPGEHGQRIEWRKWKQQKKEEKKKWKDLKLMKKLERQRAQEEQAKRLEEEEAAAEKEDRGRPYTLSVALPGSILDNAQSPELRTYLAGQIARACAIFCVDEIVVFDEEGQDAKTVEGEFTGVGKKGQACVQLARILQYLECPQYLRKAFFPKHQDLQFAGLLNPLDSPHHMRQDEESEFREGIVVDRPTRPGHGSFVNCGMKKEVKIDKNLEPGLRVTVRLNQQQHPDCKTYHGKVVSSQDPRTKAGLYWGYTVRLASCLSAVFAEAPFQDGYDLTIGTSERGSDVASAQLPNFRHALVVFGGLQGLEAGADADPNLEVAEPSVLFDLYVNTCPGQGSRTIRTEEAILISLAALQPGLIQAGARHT
UniProt Q15797: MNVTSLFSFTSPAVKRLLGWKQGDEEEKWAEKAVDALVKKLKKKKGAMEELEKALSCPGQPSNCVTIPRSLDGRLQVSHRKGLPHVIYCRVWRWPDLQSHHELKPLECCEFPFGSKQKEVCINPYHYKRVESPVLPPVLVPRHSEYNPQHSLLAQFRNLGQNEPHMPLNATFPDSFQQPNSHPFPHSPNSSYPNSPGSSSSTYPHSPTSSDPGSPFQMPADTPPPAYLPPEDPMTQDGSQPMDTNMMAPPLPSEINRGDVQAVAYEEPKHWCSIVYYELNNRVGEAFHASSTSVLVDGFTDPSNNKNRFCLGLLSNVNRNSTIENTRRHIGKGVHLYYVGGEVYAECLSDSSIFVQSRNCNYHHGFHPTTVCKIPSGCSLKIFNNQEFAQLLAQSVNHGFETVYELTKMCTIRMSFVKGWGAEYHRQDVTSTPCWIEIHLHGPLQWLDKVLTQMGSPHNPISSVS
UniProt Q5JVF3: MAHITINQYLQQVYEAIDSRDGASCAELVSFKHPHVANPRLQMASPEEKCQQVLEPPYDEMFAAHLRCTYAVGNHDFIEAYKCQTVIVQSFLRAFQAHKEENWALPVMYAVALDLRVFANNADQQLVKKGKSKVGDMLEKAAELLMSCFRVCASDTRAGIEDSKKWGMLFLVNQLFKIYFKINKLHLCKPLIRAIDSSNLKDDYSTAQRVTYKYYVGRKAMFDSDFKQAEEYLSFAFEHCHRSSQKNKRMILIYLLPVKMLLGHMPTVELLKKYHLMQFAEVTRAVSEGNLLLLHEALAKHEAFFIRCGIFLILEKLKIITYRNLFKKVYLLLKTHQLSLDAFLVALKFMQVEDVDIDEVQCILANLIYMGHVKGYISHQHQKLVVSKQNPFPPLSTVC

± gives the standard deviation of the averaged measurements. The list shows a part of the results.

Compound in this assay: Nc1nc2c(ncn2[C@@H]2O[C@H](COP(=O)(O)OP(=O)(O)OP(=O)(O)O)[C@@H](O)[C@H]2O)c(=O)[nH]1 [guanosine triphosphate]
Description: NP40-soluble protein abundance relative to vehicle (solubility fold change) (ratio); higher = more soluble protein in presence of GTP. The method, boiled down:
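In three independent experiments, Jurkat crude lysate made by Dounce homogenisation was treated for 10 min at room temperature and then 3 min at 37 °C with eight concentrations ranging from 0.1 to 10 mM. It was then solubilised with 0.8% NP40 plus benzonase for 60 min at 4 °C and ultracentrifuged. The supernatant was TMT-labelled for LC-MS/MS, and each value is the fold change against the detergent-processed vehicle for the same replicate, using vsn-normalised intensities.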

On to UniProt Q5T5Y3 and related entries, for which the NP40-soluble protein abundance came out at 1.075 ± 0.0042 (concentration: 0.1mM); 0.976 ± 0.061 (concentration: 0.5mM); 1.04 ± 0.023 (concentration: 1mM); 0.997 ± 0.077 (concentration: 2mM); 0.97 ± 0.047 (concentration: 4mM); 0.957 ± 0.06 (concentration: 6mM). For the same target, the NP40-soluble protein abundance was 0.988 ± 0.047 (concentration: 8mM) and 0.966 ± 0.025 (concentration: 10mM).
On to HSD17B12 (UniProt Q53GQ0), for which the NP40-soluble protein abundance was found to be 0.955 ± 0.068 (concentration: 0.1mM); 1.02 ± 0.075 (concentration: 0.5mM); 0.879 ± 0.028 (concentration: 1mM); 0.928 ± 0.074 (concentration: 2mM); 0.855 ± 0.075 (concentration: 4mM); 0.926 ± 0.083 (concentration: 6mM). Also, the NP40-soluble protein abundance (concentration: 8mM) came out at 0.826 ± 0.048 and the NP40-soluble protein abundance (concentration: 10mM) is 0.87 ± 0.067.
Turning to QPRT (UniProt Q15274), the NP40-soluble protein abundance (concentration: 0.1mM) worked out at 0.996 ± 0.04; the NP40-soluble protein abundance (concentration: 0.5mM) stood at 0.993 ± 0.031; the NP40-soluble protein abundance (concentration: 1mM) worked out at 0.9267 ± 0.0056; the NP40-soluble protein abundance (concentration: 2mM) came to 0.944 ± 0.029; the NP40-soluble protein abundance (concentration: 4mM) was 0.936 ± 0.013; the NP40-soluble protein abundance (concentration: 6mM) came to 0.913 ± 0.019. Moreover, the NP40-soluble protein abundance was 0.926 ± 0.019 (concentration: 8mM) and 0.92 ± 0.031 (concentration: 10mM).
With ACSF3 (UniProt Q4G176), the NP40-soluble protein abundance by setting is: (concentration: 0.1mM) 1.06 ± 0.066; (concentration: 0.5mM) 1.06 ± 0.088; (concentration: 1mM) 0.928 ± 0.037; (concentration: 2mM) 0.94 ± 0.084; (concentration: 4mM) 0.908 ± 0.058; (concentration: 6mM) 0.913 ± 0.036. Also, the NP40-soluble protein abundance reads like this: (concentration: 8mM) 0.844 ± 0.033; (concentration: 10mM) 0.845 ± 0.11.
On to HS1BP3 (UniProt Q53T59), for which the NP40-soluble protein abundance runs as follows: (concentration: 0.1mM) 1.04 ± 0.13; (concentration: 0.5mM) 1.03 ± 0.12; (concentration: 1mM) 1.03 ± 0.03; (concentration: 2mM) 1.06 ± 0.21; (concentration: 4mM) 0.954 ± 0.15; (concentration: 6mM) 0.995 ± 0.19. The NP40-soluble protein abundance runs as follows: (concentration: 8mM) 0.975 ± 0.13; (concentration: 10mM) 0.921 ± 0.1.
UniProt Q5MIZ7 and related entries: the NP40-soluble protein abundance is, setting by setting: (concentration: 0.1mM) 0.965 ± 0.013; (concentration: 0.5mM) 0.987 ± 0.019; (concentration: 1mM) 0.955 ± 0.023; (concentration: 2mM) 0.923 ± 0.039; (concentration: 4mM) 0.913 ± 0.015; (concentration: 6mM) 0.908 ± 0.046. The NP40-soluble protein abundance (concentration: 8mM) was 0.962 ± 0.072 and the NP40-soluble protein abundance (concentration: 10mM) came out at 0.97 ± 0.034.
In the case of UniProt Q15291 and related entries, the NP40-soluble protein abundance was determined as 1.03 ± 0.062 (concentration: 0.1mM); 1.03 ± 0.057 (concentration: 0.5mM); 0.957 ± 0.041 (concentration: 1mM); 0.996 ± 0.083 (concentration: 2mM); 1.01 ± 0.11 (concentration: 4mM); 1.05 ± 0.079 (concentration: 6mM). For the same target, the NP40-soluble protein abundance by setting is: (concentration: 8mM) 1.01 ± 0.057; (concentration: 10mM) 1.03 ± 0.051.
On to KIF14 (UniProt Q15058), for which the NP40-soluble protein abundance (concentration: 0.1mM) is 1.05 ± 0.012; the NP40-soluble protein abundance (concentration: 0.5mM) came out at 1.14 ± 0.046; the NP40-soluble protein abundance (concentration: 1mM) came out at 1.04 ± 0.059; the NP40-soluble protein abundance (concentration: 2mM) was determined as 1.11 ± 0.18; the NP40-soluble protein abundance (concentration: 4mM) is 1.24 ± 0.12; the NP40-soluble protein abundance (concentration: 6mM) came to 1.22 ± 0.15. Also, the NP40-soluble protein abundance was 1.17 ± 0.15 (concentration: 8mM) and 1.13 ± 0.075 (concentration: 10mM).
Regarding DNTTIP2 (UniProt Q5QJE6), the NP40-soluble protein abundance worked out at 0.976 ± 0.066 (concentration: 0.1mM); 1.06 ± 0.076 (concentration: 0.5mM); 1.13 ± 0.11 (concentration: 1mM); 1.15 ± 0.13 (concentration: 2mM); 1.19 ± 0.14 (concentration: 4mM); 1.26 ± 0.15 (concentration: 6mM). Further, the NP40-soluble protein abundance is 1.3 ± 0.12 (concentration: 8mM) and 1.3 ± 0.093 (concentration: 10mM).
Turning to UniProt Q15032-2, the NP40-soluble protein abundance runs as follows: (concentration: 0.1mM) 1.05 ± 0.12; (concentration: 0.5mM) 0.952 ± 0.083; (concentration: 1mM) 1.05 ± 0.072; (concentration: 2mM) 1.02 ± 0.13; (concentration: 4mM) 1.09 ± 0.096; (concentration: 6mM) 0.978 ± 0.12. The NP40-soluble protein abundance (concentration: 8mM) came out at 1.1401 ± 0.00067 and the NP40-soluble protein abundance (concentration: 10mM) came to 1.02 ± 0.078.
In the case of UniProt Q15652 and related entries, the NP40-soluble protein abundance by setting is: (concentration: 0.1mM) 0.969 ± 0.057; (concentration: 0.5mM) 0.987 ± 0.047; (concentration: 1mM) 1.06 ± 0.042; (concentration: 2mM) 1.04 ± 0.056; (concentration: 4mM) 1.08 ± 0.038; (concentration: 6mM) 1.05 ± 0.028. In addition, the NP40-soluble protein abundance was 1.1 ± 0.023 (concentration: 8mM) and 1.12 ± 0.051 (concentration: 10mM).
For the target UniProt Q15853 and related entries, the NP40-soluble protein abundance amounted to 0.985 ± 0.05 (concentration: 0.1mM); 0.943 ± 0.074 (concentration: 0.5mM); 0.952 ± 0.078 (concentration: 1mM); 0.919 ± 0.12 (concentration: 2mM); 0.877 ± 0.099 (concentration: 4mM); 0.909 ± 0.088 (concentration: 6mM). The NP40-soluble protein abundance reads like this: (concentration: 8mM) 0.947 ± 0.062; (concentration: 10mM) 0.926 ± 0.12.
Consider UniProt Q5T3J3, for which the NP40-soluble protein abundance by setting is: (concentration: 0.1mM) 1.05 ± 0.038; (concentration: 0.5mM) 0.982 ± 0.022; (concentration: 1mM) 1.19 ± 0.074; (concentration: 2mM) 1.233 ± 0.01; (concentration: 4mM) 1.32 ± 0.036; (concentration: 6mM) 1.36 ± 0.019. Besides, the NP40-soluble protein abundance is, setting by setting: (concentration: 8mM) 1.49 ± 0.12; (concentration: 10mM) 1.59 ± 0.1.
UniProt Q5T280: the NP40-soluble protein abundance (concentration: 0.1mM) stood at 1.1 ± 0.1; the NP40-soluble protein abundance (concentration: 0.5mM) is 1.05 ± 0.052; the NP40-soluble protein abundance (concentration: 1mM) amounted to 1.11 ± 0.14; the NP40-soluble protein abundance (concentration: 2mM) was found to be 1.16 ± 0.056; the NP40-soluble protein abundance (concentration: 4mM) is 1.29 ± 0.047; the NP40-soluble protein abundance (concentration: 6mM) turned out to be 1.41 ± 0.087. Moreover, the NP40-soluble protein abundance by setting is: (concentration: 8mM) 1.54 ± 0.08; (concentration: 10mM) 1.69 ± 0.028.
On to MAPRE2 (UniProt Q15555), for which the NP40-soluble protein abundance reads like this: (concentration: 0.1mM) 0.91 ± 0.046; (concentration: 0.5mM) 0.917 ± 0.065; (concentration: 1mM) 0.95 ± 0.031; (concentration: 2mM) 0.892 ± 0.058; (concentration: 4mM) 0.859 ± 0.066; (concentration: 6mM) 0.903 ± 0.066. Further, the NP40-soluble protein abundance runs as follows: (concentration: 8mM) 0.9 ± 0.05; (concentration: 10mM) 0.871 ± 0.042.
For SMAD1 (UniProt Q15797), the NP40-soluble protein abundance (concentration: 0.1mM) was 1.07 ± 0.037; the NP40-soluble protein abundance (concentration: 0.5mM) stood at 0.9103 ± 0.0054; the NP40-soluble protein abundance (concentration: 1mM) stood at 0.923 ± 0.11; the NP40-soluble protein abundance (concentration: 2mM) was found to be 0.94 ± 0.069; the NP40-soluble protein abundance (concentration: 4mM) stood at 0.978 ± 0.054; the NP40-soluble protein abundance (concentration: 6mM) came to 1.01 ± 0.17. The NP40-soluble protein abundance turned out to be 0.992 ± 0.032 (concentration: 8mM) and 0.867 ± 0.098 (concentration: 10mM).
UniProt Q5R372 and related entries: the NP40-soluble protein abundance by setting is: (concentration: 0.1mM) 1.04 ± 0.012; (concentration: 0.5mM) 0.993 ± 0.036; (concentration: 1mM) 0.962 ± 0.021; (concentration: 2mM) 0.955 ± 0.019; (concentration: 4mM) 0.968 ± 0.03; (concentration: 6mM) 0.916 ± 0.01. In addition, the NP40-soluble protein abundance (concentration: 8mM) worked out at 0.9582 ± 0.0061 and the NP40-soluble protein abundance (concentration: 10mM) came out at 0.931 ± 0.039.
On to UniProt Q5JVF3 and related entries, for which the NP40-soluble protein abundance (concentration: 0.1mM) stood at 1.04 ± 0.047; the NP40-soluble protein abundance (concentration: 0.5mM) worked out at 1.04 ± 0.046; the NP40-soluble protein abundance (concentration: 1mM) was found to be 0.892 ± 0.019; the NP40-soluble protein abundance (concentration: 2mM) was determined as 0.916 ± 0.061; the NP40-soluble protein abundance (concentration: 4mM) was determined as 0.901 ± 0.059; the NP40-soluble protein abundance (concentration: 6mM) was found to be 0.939 ± 0.03. Besides, the NP40-soluble protein abundance came to 0.9 ± 0.023 (concentration: 8mM) and 0.902 ± 0.052 (concentration: 10mM).
